Screening data, single-dose tests

By UniProt entry, the sequences of proteins in these tests, tags left out. Residues count along the entry.
UniProt Q8IDJ8, 1-583: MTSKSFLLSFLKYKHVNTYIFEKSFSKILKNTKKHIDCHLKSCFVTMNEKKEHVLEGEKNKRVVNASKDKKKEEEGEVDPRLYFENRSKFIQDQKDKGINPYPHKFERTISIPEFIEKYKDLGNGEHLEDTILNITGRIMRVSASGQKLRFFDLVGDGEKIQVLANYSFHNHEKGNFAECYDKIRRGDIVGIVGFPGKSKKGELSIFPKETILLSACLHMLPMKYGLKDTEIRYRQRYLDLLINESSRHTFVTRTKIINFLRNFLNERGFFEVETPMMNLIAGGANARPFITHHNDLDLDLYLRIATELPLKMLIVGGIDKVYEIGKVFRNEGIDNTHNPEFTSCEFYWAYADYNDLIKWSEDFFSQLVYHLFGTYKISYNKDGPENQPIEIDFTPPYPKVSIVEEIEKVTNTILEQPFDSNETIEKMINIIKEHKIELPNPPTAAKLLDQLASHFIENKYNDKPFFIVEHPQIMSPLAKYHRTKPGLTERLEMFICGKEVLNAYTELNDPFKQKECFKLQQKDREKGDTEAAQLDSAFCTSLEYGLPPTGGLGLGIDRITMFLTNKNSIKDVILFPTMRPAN

Measurements from “University of Dundee, Small-Polar-MMV Screening Library” (2021), ChEMBL document CHEMBL3988442.

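Lysine-tRNA ligase, Plasmodium falciparum 3D7 (UniProt Q8IDJ8). Enzyme assay of the cytosolic lysyl-tRNA synthetase in 384-well plates, read by luminescence. Compounds at 30 µM. Direction is inferred from only a few compounds that gave an IC50; most scored high, so higher reads as stronger inhibition. Size under these conditions: about 69,000 compounds, about 49 of them at 50% or above in at least one test.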

Values are the deposited “Percent Effect”, in %.
The controls that fix the scale are not given in the record; negative values are as filed.
This is an unselected part of the compounds tested.

- Cc1cc(C2CCCN2Cc2nnc(-c3ccco3)o2)on1 (stereo not shown) | 4.208%
- O=C(c1cn2cc(Cl)cnc2n1)N1CCOCC(O)(CN2CCCC2)C1 (stereo not shown) | 2.122%
- Cc1nc(C2CCCN2CC(=O)N(C)Cc2ccsc2)no1 (stereo not shown) | -3.427%
- O=S(=O)(c1ccc(Cl)cc1)N1CCc2nc(C3CCNCC3)ncc2C1 | 4.033%
- CC(=O)N[C@@H]1CN(Cc2oc3ccccc3c2C)C[C@H]1c1ccc(C)o1 | 9.124%
- CC(C)c1nc(CN2CCN(CC(O)c3ccccc3)CC2)no1 (stereo not shown) | 2.684%
- c1cnnc(N2CCCC(NCc3ccc(-n4cncn4)cc3)C2)c1 (stereo not shown) | 10.49%
- CCC(NC(=O)c1ccoc1)c1ccccc1OCC(=O)N1CCCC1 (stereo not shown) | 0.8232%
- Cc1ccc(-c2cnnc(N3CCCC3c3nccs3)n2)o1 (stereo not shown) | 4.898%
- O=C(c1cnn(-c2ccccc2F)c1)N1CCN(CCO)CC1 | 3.003%
- Cc1cnc(CCNC(=O)NCCc2ccc(O)cc2)s1 | -2.108%
- CCS(=O)(=O)N1CCc2ccc(NC(=O)Nc3cccc(C#N)c3)cc21 | 1.989%
- O=S(=O)(NCc1ccccc1Cn1cncn1)C1CCCC1 | 1.5%
- Cc1nnc2n1CCN(C(=O)c1cnc3c(cnn3C(C)C)c1)C2 | 0.8636%
- O=C(NCC1CC(=O)N(CCc2ccccc2)C1)c1ccon1 (stereo not shown) | 6.262%
- CCc1nccn1C1CCCN(C(=O)c2cccc3c2OCO3)C1 (stereo not shown) | -0.3306%
- Cc1cc(CN(C)Cc2csc(-c3cccs3)n2)n[nH]1 | 3.42%
- CCn1ncc2c1CCCC2NCc1cccc2c1OCCO2 (stereo not shown) | 0.4355%
- Cn1cc(Cl)cc1C(=O)N1CCCN(Cc2ccccc2)CC1 | 0.9073%
- COc1cc(N2C[C@@H]3COC[C@]3(COCc3cccc(C)n3)C2)ncn1 | 0.4774%
- CC(C)CCc1nc(CN2CCOC(Cn3cncn3)C2)cs1 (stereo not shown) | 0.547%
- Cc1noc([C@@H]2CCO[C@@H]3CCN(Cc4cccs4)C[C@@H]32)n1 | 3.671%
- COc1ccc(NC(=O)Nc2cnc(N3CCN(C)CC3)nc2)cc1Cl | 4.012%
- CN(CC(=O)N(C)C1CC1)C1CCN(c2ccc(Cl)cc2)CC1 | -4.799%
- Cc1ccccc1CN1CC[C@H](c2nnc(-c3cncn3C)o2)C1 | 9.486%
- NC(=O)NC(CC(=O)NCCc1cccc(F)c1)c1ccccc1 (stereo not shown) | 4.973%
- CC(=O)N1N=C(c2cccs2)OC1C(=O)Nc1ccccc1 (stereo not shown) | 2.56%
- CNc1nc2c(s1)C(c1cc(Cl)ccc1F)CC(=O)N2 (stereo not shown) | 44.9%
- CCS(=O)(=O)CC(=O)Nc1c(C)cnn1Cc1cc(F)ccc1F | -4.949%
- O=C(NCCN1CCOCC1)NCc1ccc(-n2cccn2)cc1 | 3.635%
- NCc1cn(CC2CCCN(C(=O)CC3=CCCCC3)C2)nn1 (stereo not shown) | 3.15%
- CC(C)c1noc(CCNC(=O)N2CCN(c3cccs3)CC2)n1 | -7.984%
- CN(C)c1cc(C(=O)NC2(c3cccc(F)c3)CCOCC2)ccn1 | 1.473%
- c1cncc(OC[C@@H]2CCC[C@@]23CNCCO3)c1 | -4.715%
- Cn1cnc(S(=O)(=O)NCCCN2CCCC2)c1Cl | 3.221%
- Cc1n[nH]c(C)c1NC(=O)CN1CCCC1c1c(C)nn(C)c1C (stereo not shown) | -1.277%
- COC(=O)C1Cc2nc[nH]c2CN1Cc1ccc(Sc2ncccn2)o1 (stereo not shown) | 10.06%
- Cc1noc2nc(C3CCCN(Cc4cccnc4)C3)cc(C(F)F)c12 (stereo not shown) | 5.476%
- CC(C)=CCN1CCN(C(=O)c2cc(C(C)C)on2)[C@H]2CS(=O)(=O)C[C@H]21 | -0.1609%
- CCc1ccc(OCC(O)CN2CCN(CCO)CC2)cc1 (stereo not shown) | 0.5012%
- COCC1CN(C(=O)c2cccc(C)n2)Cc2nccn2C1 (stereo not shown) | 3.477%
- Cc1ccc(Nc2nccc(C3CN(CC(N)=O)C3)n2)nc1 | 0.3215%
- CNC(=O)[C@H]1C[C@@H]2CN(S(=O)(=O)c3ccc(C)cc3)C[C@@H]2N1C | 7.778%
- CC(C)=CCN1CCN(C(=O)C2CCS(=O)(=O)C2)CC1 (stereo not shown) | 2.468%
- O=C(Nc1ccc(F)cc1F)Nc1c[nH]c(=O)[nH]c1=O | 4.612%

The last 6 entries again:

SMILES,effect
CCc1ccc(OCC(O)CN2CCN(CCO)CC2)cc1 (stereo not shown),0.5012
COCC1CN(C(=O)c2cccc(C)n2)Cc2nccn2C1 (stereo not shown),3.477
Cc1ccc(Nc2nccc(C3CN(CC(N)=O)C3)n2)nc1,0.3215
CNC(=O)[C@H]1C[C@@H]2CN(S(=O)(=O)c3ccc(C)cc3)C[C@@H]2N1C,7.778
CC(C)=CCN1CCN(C(=O)C2CCS(=O)(=O)C2)CC1 (stereo not shown),2.468
O=C(Nc1ccc(F)cc1F)Nc1c[nH]c(=O)[nH]c1=O,4.612